Here are results for 31 molecules from the supplement of paper PMC12889115.

Some of the results follow. Values are raw readings; no control value is given beside them.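 Primary screen: polymyxin B was added at a level permeabilizing Salmonella outer membranes while sparing inner membranes. DMSO wells, both with and without polymyxin B, established maximum growth. Plate-to-plate variation meant each plate was ranked on its own, and the lowest-OD600 compounds were selected as hits.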

The experiment concerns Salmonella enterica serovar Typhimurium SL1344. Put plainly: bacterial growth OD600 after 18 h with compound and polymyxin B; higher = more bacterial growth (less inhibition). The settings on record: 50 µM, Mueller-Hinton broth.

For the molecule `CCOC(=O)C1(Cc2cccc(OC)c2)CCCN(S(=O)(=O)c2cc(C)cs2)C1` (stereo unspecified), the “bacterial growth OD600” value (polymyxin B 1 µg/mL) came to 0.502.

`CCOC(=O)C1(Cc2cccc(OC)c2)CCN(Cc2nc3ccccc3[nH]2)CC1`: the “bacterial growth OD600” value (polymyxin B 1 µg/mL) amounted to 0.826. Turning to `Cc1cnc(-n2ncc(C(=O)NCCc3ccncc3)c2C2CC2)nc1-c1cccs1`, where the note is “polymyxin B 0.75 µg/mL”, the “bacterial growth OD600” value turned out to be 0.815. Turning to `CC(=O)NCCC1CCCCN1Cc1nc(C2(c3ccc(C)cc3)CCCC2)no1` (stereo unspecified), the “bacterial growth OD600” value (polymyxin B 1 µg/mL) stood at 0.019. Turning to `CCOC(=O)C1(CC2CCCCO2)CCN(Cc2cccc(C(F)(F)F)c2)CC1` (stereo unspecified), the “bacterial growth OD600” value (polymyxin B 0.75 µg/mL) came out at 0.831. For `c1csc(CNc2nc(CN3CCc4ccccc4C3)nc3ccccc23)c1`, the “bacterial growth OD600” value (polymyxin B 0.75 µg/mL) was 0.003.

`COc1ccc(CCCN2C(=O)O[C@@H]3CN(S(=O)(=O)N4CCCC4)C[C@@H]32)cc1`: under “polymyxin B 1 µg/mL”, the “bacterial growth OD600” value is 0.909.

As for `CN(Cc1ncc[nH]1)C(=O)CCc1nnc(CCC2CCCCC2)o1`, where the note is “polymyxin B 1 µg/mL”, the “bacterial growth OD600” value was found to be 1.08.

On to `CCS(=O)(=O)c1ncc(CN2CCCCC2c2cccnc2)n1CCc1ccccc1` (stereo unspecified), for which, under “polymyxin B 1 µg/mL”, the “bacterial growth OD600” value was 0.012. `CCCCc1nc2cc(C(=O)NCC(O)COC)ccc2o1` (stereo unspecified): the “bacterial growth OD600” value (polymyxin B 1 µg/mL) was found to be 0.844. On the same count and under the same terms, for `Cc1ccc(C(=O)NC(C)c2cnn(-c3ccccc3C)c2C)cn1` (stereo unspecified) the value was 0.879; for `COc1ccc(CCN2CCC(CN(C)Cc3cc(OC)ccc3F)CC2)cc1`, 0.951.

Turning to `COc1ccc2c(c1)C=C(CNC1CCCc3nc(N(C)C)ncc31)CO2` (stereo unspecified), the “bacterial growth OD600” value (polymyxin B 0.75 µg/mL) is 0.668. With `O=C(NCC1CCCN(C(=O)CCn2cnnn2)C1)c1ccc(-c2ccccc2)cc1` (stereo unspecified), under “polymyxin B 1 µg/mL”, the “bacterial growth OD600” value worked out at 0.891. On to `COc1cccc(-c2nc3ccc(C(=O)N(C)Cc4c(C)n[nH]c4C)cc3o2)c1`, for which, under “polymyxin B 0.75 µg/mL”, the “bacterial growth OD600” value stood at 0.004. On to `CCC1C(=O)NCCN1Cc1ccc2c(c1)CN(Cc1ccc(OC)c(C)c1)CCO2` (stereo unspecified), for which the “bacterial growth OD600” value (polymyxin B 0.75 µg/mL) worked out at 0.846. For the molecule `COC(=O)[C@@H](NC(=O)CCC1(Cc2ccc(OC)cc2F)CCC(=O)N1)C(C)C` (stereo partly specified), the “bacterial growth OD600” value (polymyxin B 0.75 µg/mL) amounted to 0.842. For `Cc1ccc(F)cc1CNC(=O)CCC1(Cc2ccc(Cl)cc2)CCC(=O)N1` (stereo unspecified), the “bacterial growth OD600” value (polymyxin B 0.75 µg/mL) amounted to 0.783. Turning to `CCOc1ccc2nc(N3CCC(NC(Cn4cccn4)c4ccccc4)CC3)nc(C)c2c1` (stereo unspecified), the “bacterial growth OD600” value (polymyxin B 0.75 µg/mL) came to 0. Take `O=C(NC1CCCC1)c1ccc(N2CCC(NCc3cccc(F)c3F)CC2)cc1`: the “bacterial growth OD600” value (polymyxin B 0.75 µg/mL) was 0.013. Turning to `COc1ccc(Cc2nc3ccc(C(=O)NCC4CCCCO4)cc3o2)cc1` (stereo unspecified), the “bacterial growth OD600” value (polymyxin B 0.75 µg/mL) amounted to 0.546. `COc1ccc(CCN2CCC(CN(C)C(=O)c3ccc(Cl)cc3F)CC2)cc1`: the “bacterial growth OD600” value (polymyxin B 1 µg/mL) is 0.834. For `O=C(CCC1(Cc2cccc3ccccc23)CCC(=O)N1)NCCc1ccccn1` (stereo unspecified), the “bacterial growth OD600” value (polymyxin B 0.75 µg/mL) was 0.798.

On to `COc1ccc(C(CC(=O)N(C)Cc2nc(C)c[nH]2)c2ccccc2)cc1` (stereo unspecified), for which the “bacterial growth OD600” value (polymyxin B 1 µg/mL) amounted to 0.702. As to `Cc1ccccc1-c1cnnc(NC(C)Cc2ncccc2C)n1` (stereo unspecified), where the note is “polymyxin B 1 µg/mL”, the “bacterial growth OD600” value was found to be 0.862. Regarding `CC(Cc1ccsc1)NC(=O)C1CC(=O)c2sc(NC(=O)c3c(F)cccc3Cl)nc2C1` (stereo unspecified), the “bacterial growth OD600” value (polymyxin B 0.75 µg/mL) amounted to 0.91. Consider `CN(CC1CCCN(CCc2ccccc2F)C1)C(=O)Cn1cc2ccccc2n1` (stereo unspecified), for which, for the setting “polymyxin B 1 µg/mL”, the “bacterial growth OD600” value was 0.888. For the molecule `CC(C)N(C)Cc1nnnn1CC(=O)N(C)CCc1nc2ccccc2[nH]1`, the “bacterial growth OD600” value (polymyxin B 0.75 µg/mL) was 0.801. As to `OCCC1CN(Cc2cccc3c2OCO3)CCN1Cc1ccccc1F` (stereo unspecified), the “bacterial growth OD600” value (polymyxin B 1 µg/mL) is 0.903. With `C/C(=C\c1ccccc1)CNC1CCCc2nc(N3CCC(CO)CC3)ncc21` (stereo unspecified), the “bacterial growth OD600” value (polymyxin B 0.75 µg/mL) amounted to 0.712. In the case of `Cc1nc(N(C)C2CCCCC2)ncc1C(C)NCc1nc2ccccc2[nH]1` (stereo unspecified), the “bacterial growth OD600” value (polymyxin B 0.75 µg/mL) was 0.029.
